Source: patent US8232063B2, “H+-gated ion channel” (University of Utah Research Foundation, priority 2004, dated 2012)
Where two headings read alike, the source gives them in different places. At least one compound was matched to its structure with a doubt left.

How the values were obtained:
Type in all cases: cell-based, C. elegans
PBO-5 homomers = target: T1, PBO-5 homomers (Caenorhabditis elegans, UniProt G5ECT0); test: Two-electrode voltage clamp of Xenopus oocytes injected with PBO-5 cRNA (homomers)
T1 construct: cloned into the pCR2.1 TA cloning vector (Invitrogen) and a full length clone pPD68 was generated; expressed in transfected cells; host or cells: Xenopus oocytes injected with PBO-5 cRNA (pSGEM-based plasmid pAB20)
T1 sequence (G5ECT0 22-504 isoform G5ECT0-2 limits assumed): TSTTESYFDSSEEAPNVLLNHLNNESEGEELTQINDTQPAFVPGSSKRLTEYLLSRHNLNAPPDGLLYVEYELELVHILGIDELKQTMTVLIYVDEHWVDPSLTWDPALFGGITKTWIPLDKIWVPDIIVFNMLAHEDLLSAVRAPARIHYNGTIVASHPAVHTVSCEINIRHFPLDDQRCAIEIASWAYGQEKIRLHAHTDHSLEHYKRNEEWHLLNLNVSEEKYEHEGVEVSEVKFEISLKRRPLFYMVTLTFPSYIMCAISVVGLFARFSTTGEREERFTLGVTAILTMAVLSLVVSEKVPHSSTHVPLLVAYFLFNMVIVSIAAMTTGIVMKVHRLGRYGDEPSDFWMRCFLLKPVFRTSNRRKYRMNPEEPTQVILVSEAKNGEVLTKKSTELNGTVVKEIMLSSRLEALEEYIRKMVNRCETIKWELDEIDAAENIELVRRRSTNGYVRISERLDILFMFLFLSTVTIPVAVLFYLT
Protocol: (§1) Capped RNA was prepared using the T7 mMessage mMachine kit (Ambion). Xenopus oocytes were collected and coinjected with 25 ng each of PBO-5 and PBO-8 cRNA and two-electrode voltage clamp recordings were performed 3-5 days post-injection. The standard bath solution for dose-response and control I-V experiments was Ringer's (in mM): 115 NaCl, 1.8 […], 10 Bis-Tris Propane (pH 7.4 Acetic acid). For dose-response experiments, each oocyte was subjected to a 5 second application of test pH (7.0 - 5.0) with 2 minutes of pH 7.4 wash between test applications.
To determine if PBO-5 can form a homo-oligomeric receptor, we injected PBO-5 cRNA in Xenopus oocytes. […] Two-electrode voltage clamp recordings were used to assay receptor functionality.
To determine if PBO-5 and PBO-8 can co-assemble to form a functional receptor, we injected PBO-5 and PBO-8 cRNA into Xenopus oocytes. […] To determine the possible signal that mediates posterior body contraction we examined the pbo-4 gene.

PBO-8 homomers = test: Two-electrode voltage clamp of Xenopus oocytes injected with PBO-8 cRNA (homomers)
PBO-5/PBO-8 receptors = test: Two-electrode voltage clamp of Xenopus oocytes coinjected with PBO-5 and PBO-8 cRNA
Protocol: as §1
Ion selectivity experiments: All points are responses to test pulse applications of pH 6.8 for 5 seconds. The reversal potential of PBO-5/PBO-8 expressing oocytes were first determined in standard Ringer's (in mM): 115 NaCl, 1.0 CaCl2, 10 Bis-Tris Propane (pH 7.4, acetic acid). For chloride permeability a simplified solution was used, chloride-free (in mM): 115 Na^+ gluconate, 1.0 CaCl2, 10 Bis-Tris Propane (pH 7.4 acetic acid). For Na^+ permeability a simplified solution was used, Na^+ free (in mM): 115 mM N-methyl D-glucamine (NMDG), 1.8 CaCl2, 10 Bis-Tris Propane (pH 7.4 acetic acid)). All solutions were brought to pH by addition of NaOH or acetic acid. […] Osmolarity was measured for each solution and was maintained at 240 mOsm by the addition of sucrose. […]

CC(=O)OCC[N+](C)(C)C [acetylcholine]
activation of PBO-5 homomers (functional response) (PBO-5 homomers): failed to elicit a functional response | activation of PBO-5 homomers (functional response) (PBO-5 homomers; listed as ACh): lacked the ability to activate | activation of PBO-8 homomers (PBO-8 homomers): lacked the ability to activate | activation of PBO-5/PBO-8 heteromers (PBO-5/PBO-8 receptors): lacked the ability to activate
